Library screen at single concentrations

The values are deposited in ChEMBL (CHEMBL3988442, “University of Dundee, Small-Polar-MMV Screening Library” (2021)).

Mtb cholesterol medium: 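Whole-cell growth test on Mycobacterium tuberculosis, read after 4 days in a medium based on cholesterol and the lipid DPPC; the read-out is not stated. Compounds at 50 µM. Direction is inferred from retests: higher values go with more growth inhibition. Size under these conditions: about 69,000 compounds, about 370 of them at 50% or above in at least one test.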
Mtb glucose medium: 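Growth of Mycobacterium tuberculosis over 3 days (7H9 medium with glucose and tyloxapol); the read-out is not stated. Tested at 50 µM. Higher reads as more growth inhibition (inferred: compounds with an IC50 in retests scored well above the rest). Size under these conditions: about 69,000 compounds, about 760 of them at 50% or above in at least one test.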

The filed quantity is “Percent Effect” (%). The controls that fix the scale are not given in the record; negative values are as filed. The compounds are a random part of those screened. Two or more numbers in one place are separate tests of the same structure; such repeats can differ widely.

| # | compound | Mtb cholesterol medium | Mtb glucose medium |
|---|---|---|---|
| 1 | `O=C(O)C(F)(F)F.[H][C@@]12CCN(CCOCc3ccccc3)[C@]1([H])CC[C@@H](C(=O)N1CCCC1)O2` | -22.7% | 25.22% |
| 2 | `CC(C)Cc1ncc2c(n1)CN(c1cc(NC3CC3)nc(N)n1)C2` | -13.64% | -1.082% |
| 3 | `COc1ccc(CNC[C@H]2Cn3ccnc3CO2)cn1` | -13.59% | -1.559% and 0.7896% |
| 4 | `Cc1cccc(-c2ccc(C(=O)NCC(C)(C)C(N)=O)c(=O)[nH]2)c1` | 12.15% | 27.69% |
| 5 | `O[C@@H]1CN(Cc2cc(Cl)cc3cccnc23)C[C@@H]1O` | 6.604% | -0.5647% |
| 6 | `[H][C@]12CC[C@]([H])(CC(=O)NC1)N2C(=O)CCc1ccccc1` | -2.201% | 5.093% and 3.878% |
| 7 | `O=C(O)C(F)(F)F.[H][C@@]12CN(CC3CCOC3)C[C@@]1([H])N(Cc1cccc(F)c1)C(=O)CO2` (stereo partly specified) | -5.15% | -0.7247% |
| 8 | `Cc1noc(CNC(=O)CN(C)c2nc3c(F)cccc3s2)n1` | -32.75% | -20.08% and -4.228% |
| 9 | `O=C(O)CC(CC(=O)N(Cc1ccsc1)C1CC1)c1cccs1` (stereo unspecified) | -2.043% | -9.355% |
| 10 | `Cc1cc(OCC(=O)N2CCCC(c3noc(C)n3)C2)no1` (stereo unspecified) | -23.77% | -17.31% |
| 11 | `CC(C(=O)N1CCCC1)N1CCC(c2nccn2Cc2cscn2)CC1` (stereo unspecified) | -16.15% | -22.01% |
| 12 | `COC1CCN(C(=O)Cc2csc(-c3ccccc3)n2)CC1` | 10.65% | 7.239% |
| 13 | `Clc1ccc(Cc2nc(CNCCn3cccn3)cs2)cc1` | 19.1% | 31.88% and 41.16% |
| 14 | `CCOc1ccc(NC2CCN(CC(F)(F)F)C2=O)cc1C` (stereo unspecified) | 16.86% | 4.391% and 8.95% |
| 15 | `COC(=O)C1CCN(C(=O)c2ccc(C)c(NS(C)(=O)=O)c2)CC1` | -7.186% | -8.658% |
| 16 | `CCCc1cc(CNC2CCN(c3cc(C(C)C)nc(C)n3)CC2)on1` | -1.62% | 5.021% |
| 17 | `O=C(O)C(F)(F)F.[H][C@]12CC[C@@]3(N=C(CC)N(C)C3=O)[C@@]1([H])CN(CC1CC1)C2` | -6.171% | -14.04% |
| 18 | `O=C(O)C(F)(F)F.O=C1CCCN1Cc1nnc2n1CCN(Cc1ccco1)CC2` | 26.37% | -9.36% |
| 19 | `CC(NCC1CCN(CCO)CC1)c1cccnc1` (stereo unspecified) | -5.86% | -13.45% |
| 20 | `CN1CCC(Cc2cncc(-c3ccccc3C(=O)O)n2)C1` (stereo unspecified) | 5.508% | 17.86% |
| 21 | `[H][C@]12CCN(Cc3ccncc3)C(=O)[C@]1([H])CN(CC)C2` | -9.672% | -2.204% |
| 22 | `CS(=O)(=O)c1cccc(C(=O)N2CCCC(n3cccn3)C2)c1` (stereo unspecified) | 0.6685% | -17.46% |
| 23 | `O=C(NC1CCc2nccn2C1)c1ccc(OCC2CC2)nc1` (stereo unspecified) | 2.876% | -3.175% and -6.787% |
| 24 | `Cc1cnccc1CN1CC[C@H](Oc2cccc(F)c2)[C@@](C)(O)C1` | 15.44% | 11.84% |
| 25 | `O=C(Cc1ccc2c(c1)OCO2)N[C@@H]1CCNC[C@H]1O` | -17.19% | 21.42% |
| 26 | `Cn1cc(CN2CCCC23CCN(S(C)(=O)=O)CC3)cn1` | 3.818% | -7.071% |
| 27 | `COc1ccc(CN(Cc2nc(C)no2)C2CCCCC2)cc1OC` | 14.38% | 40.6% and 18.05% |
| 28 | `O=C(O)c1cc(-n2cc3c(n2)CCC3)cc(S(=O)(=O)NC2CCCC2)c1` | -6.471% | -3.534% |
| 29 | `CN1CCC2(CC1)CN(C)C(=O)C[C@@H]2C(F)(F)F` | 8.861% | 2.096% and -13.17% |
| 30 | `COc1ccc(C(=O)O)c(OCC(=O)NC(C)c2ccc(F)cc2)c1` (stereo unspecified) | -26.44% | 2.675% |
| 31 | `OCC1CCCN1c1cc(NCc2ccccn2)ncn1` (stereo unspecified) | -4.423% | 7.409% |
| 32 | `CNS(=O)(=O)c1cccc(CNC(=O)NCC2CCOC2)c1` (stereo unspecified) | 13.04% | 17.47% |
| 33 | `CNc1cc(C2CCCN2Cc2ccccc2OCC(=O)O)ccn1` (stereo unspecified) | 7.12% | -10.51% |
| 34 | `Cc1nc(C2CCCN(C(=O)c3cnc(C)s3)C2)no1` (stereo unspecified) | -24.05% | -2.864% and -13.73% |
| 35 | `Fc1ccc(C(NCc2nnc(-c3ccco3)o2)C2CCC2)cc1` (stereo unspecified) | 38.2% | 60.87% |
| 36 | `CC(NC(=O)N1CCN(c2cccs2)CC1)c1ccc(C#N)cc1` (stereo unspecified) | 11.01% | 26.93% and 14.66% |
| 37 | `O=C(O)C(F)(F)F.O=C(O)C(F)(F)F.[H][C@@]12C[C@@H](Oc3cccc(F)c3)CN1CCN(C(=O)c1ccc(C)nc1)C2` | 23.32% | 30.12% and 6.45% |
| 38 | `Cc1ncc(CN(C)C(=O)Nc2cccc(C(=O)N3CCOCC3)c2)s1` | -7.795% | -12.04% |
| 39 | `O=C(Cc1ccccc1)NCc1ncc(-c2ccccc2C(=O)O)cn1` | 18.23% and -7.95% | -17.6% |
| 40 | `CSc1ccccc1NC(=O)N1C[C@@H](N(C)C)[C@H](c2ccc(C)cc2)C1` | -14.77% | -7.912% |
| 41 | `O=C1CC(NCc2ccncc2)CN1Cc1cccc(F)c1` (stereo unspecified) | -1.22% | -5.929% |
| 42 | `O=C(CCO)N1CCC2(CCc3ccc(-c4ccoc4)cc32)CC1` | 15.11% | 8.569% and 1.626% |
| 43 | `CC(C)C(=O)NCCNc1nccc(-c2cc(C(=O)O)ccn2)n1` | -1.345% | -9.208% and -3.863% |
| 44 | `COCC(=O)N1CCc2ccc(=O)n(CC3CC3)c2CC1` | 0.4256% | 6.282% |
| 45 | `Cn1cnc2c1C(COCC1CCOCC1)CN(c1ncccn1)C2.O=C(O)C(F)(F)F.O=C(O)C(F)(F)F` (stereo unspecified) | -2.532% | 0.04084% |
| 46 | `Cc1cccc2c1N(C)C(=O)C21CC(=O)Nc2c1cnn2C(C)(C)C` (stereo unspecified) | -7.929% | 1.258% |
| 47 | `COC[C@]1(O)CCN(c2cc(OC)ncn2)CC1(C)C` | 13.82% | 6.568% |
| 48 | `O=C(CNC(=O)N1CCc2c([nH]c3ccc(Cl)cc23)C1)NCCCO` | -20.78% | -17.62% |
| 49 | `CS(=O)(=O)NCc1cnc2n1CCN(Cc1ccoc1)CC2.O=C(O)C(F)(F)F` | 14.5% | -9.644% |
| 50 | `COC(=O)CCN(C)Cc1cc(Br)cs1` | 21.66% | 11.49% |
| 51 | `CC(C)N(C(=O)c1ccccc1-c1nc2c([nH]1)CCNC2)C(C)C` | -44.15% | -68% |
| 52 | `CN(Cc1cnn(C)c1)C(=O)NC1CCS(=O)(=O)C1` (stereo unspecified) | 2.007% | 2.026% and -0.9434% |
| 53 | `O=C1CSC(c2ccncc2)c2c(n(C3CCOCC3)[nH]c2=O)N1` (stereo unspecified) | -55.98% | -16.86% |
| 54 | `CC1CS(=O)(=O)CCN1Cc1ccccc1N(C)C` (stereo unspecified) | 0.2832% | -4.377% |

Once more, the final 5:

{"compound": "COC(=O)CCN(C)Cc1cc(Br)cs1", "Mtb cholesterol medium": 21.66, "Mtb glucose medium": 11.49}
{"compound": "CC(C)N(C(=O)c1ccccc1-c1nc2c([nH]1)CCNC2)C(C)C", "Mtb cholesterol medium": -44.15, "Mtb glucose medium": -68}
{"compound": "CN(Cc1cnn(C)c1)C(=O)NC1CCS(=O)(=O)C1", "stereo": "stereo unspecified", "Mtb cholesterol medium": 2.007, "Mtb glucose medium": "2.026 and -0.9434"}
{"compound": "O=C1CSC(c2ccncc2)c2c(n(C3CCOCC3)[nH]c2=O)N1", "stereo": "stereo unspecified", "Mtb cholesterol medium": -55.98, "Mtb glucose medium": -16.86}
{"compound": "CC1CS(=O)(=O)CCN1Cc1ccccc1N(C)C", "stereo": "stereo unspecified", "Mtb cholesterol medium": 0.2832, "Mtb glucose medium": -4.377}